Values from PubChem BioAssay AID1259424 (University of Nebraska Medical Center, 2018).
Aim: 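Seek colon cancer survival genes behaving like KSR1, using a six-gene signature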 (primary screen). Cells: human HCT116 colon cancer cells. Reagents: siRNA pool against human genes, 50 nM. Measurement: 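Six signature mRNAs by branched-DNA multiplex assay, scaled to two housekeeping genes and non-targeting median, log2; matched to mean KSR1 knockdown profile by Pearson correlation and euclidean distance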. Scale: mean correlation with KSR1 profile: higher = expression change more like KSR1 knockdown.
The whole screen tested about 14,000 reagents; this is an unselected part. 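Higher correlation or smaller distance means closer resemblance to KSR1 loss; control wells, including KSR1 knockdowns, recur on many plates.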 Further read-outs or replicates are left out here. Not given: the time to read-out.

The opening 2 records, ahead of the listing:
DAPK1 (death associated protein kinase 1): mean correlation with KSR1 profile = 0.464
HAL (histidine ammonia-lyase): mean correlation with KSR1 profile = -0.0917

Results, from the start:
DAPK1 (death associated protein kinase 1): mean correlation with KSR1 profile = 0.464
HAL (histidine ammonia-lyase): mean correlation with KSR1 profile = -0.0917
CKLF (chemokine like factor): mean correlation with KSR1 profile = 0.0407
OSM (oncostatin M): mean correlation with KSR1 profile = -0.249
COIL (coilin): mean correlation with KSR1 profile = -0.242
MOGS (mannosyl-oligosaccharide glucosidase): mean correlation with KSR1 profile = -0.00944
NHS (NHS actin remodeling regulator): mean correlation with KSR1 profile = 0.31
FYRD1 (FYRN and FYRC domains INO80 complex interactor 1): mean correlation with KSR1 profile = 0.764
SNIP1 (Smad nuclear interacting protein 1): mean correlation with KSR1 profile = 0.45
RAB11FIP5 (RAB11 family interacting protein 5): mean correlation with KSR1 profile = -0.346
NDUFA6 (NADH:ubiquinone oxidoreductase subunit A6): mean correlation with KSR1 profile = 0.533
PDZD2 (PDZ domain containing 2): mean correlation with KSR1 profile = -0.466
